Assay results published in patent US9957299B2, “Peptidomimetic macrocycles” (AILERON THERAPEUTICS, INC., priority 2010, dated 2018).
At least one structure is not confirmed: it was looked up by name or label, or the drawing left a doubt. Bridge positions count the residues as written; N and C are the ends. Square brackets hold non-standard residues; d marks the D form. Peptide text beside a SMILES is read from it. R8 = C=CCCCCCC[C@@](C)(N)C(=O)O; S5 = C=CCCC[C@](C)(N)C(=O)O

Sequences of proteins named here, by UniProt entry; tags and fusion partners are left off.
UniProt Q00987, whole entry, looked up: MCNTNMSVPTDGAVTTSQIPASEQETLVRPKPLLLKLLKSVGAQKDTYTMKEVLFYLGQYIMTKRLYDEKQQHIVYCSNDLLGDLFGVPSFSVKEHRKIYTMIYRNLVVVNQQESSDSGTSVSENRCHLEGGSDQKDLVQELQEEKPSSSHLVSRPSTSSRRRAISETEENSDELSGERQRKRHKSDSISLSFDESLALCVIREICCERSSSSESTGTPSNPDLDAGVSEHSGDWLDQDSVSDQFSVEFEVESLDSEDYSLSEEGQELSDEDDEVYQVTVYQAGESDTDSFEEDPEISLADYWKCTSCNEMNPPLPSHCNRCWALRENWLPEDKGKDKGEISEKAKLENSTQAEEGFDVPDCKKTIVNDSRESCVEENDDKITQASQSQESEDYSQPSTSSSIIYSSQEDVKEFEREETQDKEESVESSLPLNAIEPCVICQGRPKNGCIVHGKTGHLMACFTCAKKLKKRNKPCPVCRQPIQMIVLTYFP

Biological target: HDM2 (Homo sapiens, UniProt Q00987)
Assay: FP Competition Blinding Assay | HDM2 IC50 (nM)
Settings: read-out: FP Competition Blinding Assay | HDM2 IC50

Question: Which IC50 does the source give for `CC(=O)N[C@@H](CC(C)C)C(=O)N[C@H](C(=O)N[C@@H](Cc1ccccc1)C(=O)N[C@]1(C)CCCCCCC=CCCC[C@@](C)(C(=O)N[C@@H](C)C(N)=O)NC(=O)[C@H](CC(C)C)NC(=O)[C@H](CCC(N)=O)NC(=O)[C@H](C)NC(=O)[C@H](Cc2c[nH]c3ccccc23)NC(=O)[C@H](Cc2ccc(O)cc2)NC(=O)[C@H](Cc2c[nH]cn2)NC1=O)[C@@H](C)O` [SP-344, Ac- L T F $r8 H Y W A Q L $ A A] (Ac-LTF[R8]HYWAQL[S5]A-NH2; staple 4-11) here?
Answer: 59.4 nM
